The results in this text go back to patent US20220221443A1, “BIOMARKER DETECTION FOR CANCER DIAGNOSIS AND PROGNOSIS” (IP2IPO Innovations Limited, priority 2019, published 2022).

The nature of series [1]: Combined amino acid drink (tyrosine, phenylalanine, glutamic acid): exhaled breath VOCs by SIFT-MS in cancer and controls. The class given is in vivo, human. As to conditions: median; exhaled breath; oesophagogastric cancer group; time point 30 mins after combined amino acid drink.
The nature of series [2]: 2 g tyrosine: exhaled breath VOCs by SIFT-MS in oesophageal cancer, gastric cancer and controls. The following applies: Median; for Baseline Concentration, Control: controls n=6, before 2 g tyrosine; for Baseline Concentration, Gastric Cancer / Baseline Concentration, Oesophageal Cancer: n=6, before 2 g tyrosine.
Series [3] is described as follows: Glucose dose study: exhaled breath VOCs by SIFT-MS in healthy subjects. The format is in vivo, human. The following applies: for Fold change, 10 g: 5-15 minutes after 10 g glucose; for Fold change, 25 g: 5-15 minutes after 25 g glucose; for Fold change, 50 g: 5-15 minutes after 50 g glucose; for Fold change, 75 g: 5-15 minutes after 75 g glucose; for Fold change, Baseline: 5-15 minutes, baseline 0 g glucose.

Series [4] can be described thus: Glucose versus combined glucose and citric acid: exhaled breath VOCs by SIFT-MS in healthy controls. The format is in vivo, human. The following applies: median; for Control 1 (glucose only): Baseline Concentration / Control 2 (glucose + citric acid): Baseline Concentration / Control 2 (glucose + citric acid): Post-drink Concentration / Control 1 (glucose only): Post-drink Concentration: exhaled breath; for Control 1 (glucose only): Baseline Concentration: control group 1 (n=6); for Control 1 (glucose only): Baseline Concentration / Control 2 (glucose + citric acid): Baseline Concentration: before drink; for Control 2 (glucose + citric acid): Baseline Concentration: control group 2 (n=6).

Series [5] can be described thus: Comparison of 4 sugars at 25 g: butanoic acid in exhaled breath by SIFT-MS. The format is in vivo, human. The following applies: 25 g sugar per 100 ml.

With `CCCCC(=O)O` [Pentanoic acid], the “Oesophagogastric Cancer: Post-amino acids Concentration” value in series [1] stood at 1.53 ppbv. Moreover, in series [2], the “Baseline Concentration, Control” value stood at 4.86 ppbv; the “Baseline Concentration, Gastric Cancer” value is given as 3.76 ppbv; the “Baseline Concentration, Oesophageal Cancer” value was 3.78 ppbv. In series [3] (Average of all subjects), the “Fold change, 10 g” value was 1.2; the “Fold change, 25 g” value amounted to 1.1; the “Fold change, 50 g” value stood at 1.4; the “Fold change, 75 g” value turned out to be 1.4. The “Fold change, Baseline” value in series [3] (Average of all subjects) is on record as 0.9. Also, in series [3] (Median of all subjects), the “Fold change, 10 g” value was found to be 1.1; the “Fold change, 25 g” value was determined as 1.0; the “Fold change, 50 g” value came to 1.4; the “Fold change, 75 g” value was determined as 1.3. Also, in series [3] (Median of all subjects), the “Fold change, Baseline” value was 0.9. Further, in series [4], the “Control 1 (glucose only): Baseline Concentration” value is on record as 2.45 ppbv and the “Control 2 (glucose + citric acid): Baseline Concentration” value was found to be 3.11 ppbv. Besides, in series [4] (time point 5 mins), the “Control 2 (glucose + citric acid): Post-drink Concentration” value was determined as 2.65 ppbv and the “Control 1 (glucose only): Post-drink Concentration” value was determined as 2.38 ppbv. Besides, in series [4] (5 mins vs baseline), the “Control 2 (glucose + citric acid): Fold change” value is 0.99 and the “Control 1 (glucose only): Fold change” value was found to be 0.73.

With `CCC(=O)O` [Propanoic acid], in series [1], the “Oesophagogastric Cancer: Post-amino acids Concentration” value came out at 11.46 ppbv. Further, in series [2], the “Baseline Concentration, Control” value stood at 22.58 ppbv; the “Baseline Concentration, Gastric Cancer” value stood at 31.75 ppbv; the “Baseline Concentration, Oesophageal Cancer” value is reported as 17.79 ppbv. In series [3] (Average of all subjects), the “Fold change, 10 g” value is listed as 7.1; the “Fold change, 25 g” value stood at 4.6; the “Fold change, 50 g” value is given as 7.9; the “Fold change, 75 g” value turned out to be 7.8. Besides, the “Fold change, Baseline” value in series [3] (Average of all subjects) worked out at 1.1. Besides, in series [3] (Median of all subjects), the “Fold change, 10 g” value turned out to be 5.3; the “Fold change, 25 g” value came out at 4.3; the “Fold change, 50 g” value was 6.3; the “Fold change, 75 g” value was 9.9. For the same molecule, the “Fold change, Baseline” value in series [3] (Median of all subjects) was 0.7. In addition, in series [4], the “Control 1 (glucose only): Baseline Concentration” value is on record as 15.89 ppbv and the “Control 2 (glucose + citric acid): Baseline Concentration” value amounted to 8.19 ppbv. In series [4] (time point 5-10 mins), the “Control 2 (glucose + citric acid): Post-drink Concentration” value turned out to be 15.33 ppbv and the “Control 1 (glucose only): Post-drink Concentration” value was determined as 17.14 ppbv. In series [4] (5-10 mins vs baseline), the “Control 2 (glucose + citric acid): Fold change” value came to 1.96 and the “Control 1 (glucose only): Fold change” value is given as 1.17.

`OC[C@H]1O[C@@H](O[C@H]2[C@H](O)[C@@H](O)C(O)O[C@@H]2CO)[C@H](O)[C@@H](O)[C@H]1O` (some centres unmarked) [lactose]: in series [5], the “time of maximal increase of butanoic acid in exhaled breath after sugar consumption” value came out at 10 min.
